PubChem BioAssay AID504764 – Drosophila RNAi Screening Center – 2011

- Screen: 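Knock-downs that raise or lower a Notch target reporter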 (primary screen)
- System: Drosophila Kc167 cells
- Knock-down reagent: long dsRNA against Drosophila genes
- Timing: about 5 days (4 days dsRNA, then 24 h after transfection)
- Treatment: transfection of constitutively active membrane-tethered Notch lacking the extracellular domain, read 24 h later
- Read-out: 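Light from a Notch-responsive E(spl)m3 luciferase reporter under active Notch, with control-promoter and no-Notch reporter wells to normalise; raw counts from paired wells a and b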
- Direction: induced reporter light, run 1, well a and induced reporter light, run 1, well b: higher = more light from the Notch target reporter with active Notch; control promoter light, run 1, well a and control promoter light, run 1, well b: higher = more light from the viral control promoter (cell number, transfection, viability); uninduced reporter light, run 1, well a: higher = more light from the Notch target reporter without active Notch
- Active means: 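Hit if the duplicate-averaged log2 ratio of induced to control-promoter light gives a plate-wise z beyond ±2, or induced to uninduced beyond ±1.8; weak-control or discordant-duplicate wells dropped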
- Meaning of the calls: active = modifier hit (raised or lowered Notch signal); inactive = not a hit
The screen tested about 22,000 reagents; shown is a random part of those that have a named target and a result. Of all reagents, 403 (1.9%) got an active call. 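Unnormalised raw counts per well; ratio z-scores behind the hit calls and whether each hit raises or lowers signal are not deposited.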 A number with no mark means an inactive call. Not stated in the record: the amount of reagent.

CG8219 [DRSC10971] — induced reporter light, run 1, well a: 1.76e5; induced reporter light, run 1, well b: 1.62e5; control promoter light, run 1, well a: 1.28e5; control promoter light, run 1, well b: 1.88e5; uninduced reporter light, run 1, well a: 9335
Ate1 [DRSC05925] — induced reporter light, run 1, well a: 1.22e5; induced reporter light, run 1, well b: 97655; control promoter light, run 1, well a: 2.44e5; control promoter light, run 1, well b: 2.63e5; uninduced reporter light, run 1, well a: 8790
Frl [DRSC09300] — induced reporter light, run 1, well a: 1.58e5; induced reporter light, run 1, well b: 1.37e5; control promoter light, run 1, well a: 2.47e5; control promoter light, run 1, well b: 2.42e5; uninduced reporter light, run 1, well a: 18465
Frl [DRSC10027] — induced reporter light, run 1, well a: 1.52e5; induced reporter light, run 1, well b: 1.51e5; control promoter light, run 1, well a: 2.76e5; control promoter light, run 1, well b: 2.66e5; uninduced reporter light, run 1, well a: 4455
Frl [DRSC10716] — induced reporter light, run 1, well a: 2.53e5; induced reporter light, run 1, well b: 2.25e5; control promoter light, run 1, well a: 2.85e5; control promoter light, run 1, well b: 2.71e5; uninduced reporter light, run 1, well a: 12005
tim [DRSC00841] — induced reporter light, run 1, well a: 1.88e5; induced reporter light, run 1, well b: 1.62e5; control promoter light, run 1, well a: 1.90e5; control promoter light, run 1, well b: 1.90e5; uninduced reporter light, run 1, well a: 14605
Nup358 [DRSC14410] — induced reporter light, run 1, well a: 14480 (active); induced reporter light, run 1, well b: 16990; control promoter light, run 1, well a: 18890; control promoter light, run 1, well b: 19482; uninduced reporter light, run 1, well a: 1065
SelG [DRSC19808] — induced reporter light, run 1, well a: 1.54e5; induced reporter light, run 1, well b: 1.76e5; control promoter light, run 1, well a: 2.03e5; control promoter light, run 1, well b: 2.15e5; uninduced reporter light, run 1, well a: 11915
PCB [DRSC05939] — induced reporter light, run 1, well a: 1.64e5; induced reporter light, run 1, well b: 1.34e5; control promoter light, run 1, well a: 2.21e5; control promoter light, run 1, well b: 1.73e5; uninduced reporter light, run 1, well a: 12670
Toll-9 [DRSC11776] — induced reporter light, run 1, well a: 67825; induced reporter light, run 1, well b: 62325; control promoter light, run 1, well a: 90890; control promoter light, run 1, well b: 85670; uninduced reporter light, run 1, well a: 5455
Cln7 [DRSC11005] — induced reporter light, run 1, well a: 1.12e5; induced reporter light, run 1, well b: 1.02e5; control promoter light, run 1, well a: 83965; control promoter light, run 1, well b: 41860; uninduced reporter light, run 1, well a: 11580
CG4377 [DRSC04467] — induced reporter light, run 1, well a: 2.17e5; induced reporter light, run 1, well b: 2.42e5; control promoter light, run 1, well a: 1.98e5; control promoter light, run 1, well b: 1.73e5; uninduced reporter light, run 1, well a: 15725
Lim1 [DRSC17752] — induced reporter light, run 1, well a: 2.08e5; induced reporter light, run 1, well b: 1.90e5; control promoter light, run 1, well a: 2.93e5; control promoter light, run 1, well b: 2.77e5; uninduced reporter light, run 1, well a: 16545
Lim1 [DRSC18677] — induced reporter light, run 1, well a: 1.85e5; induced reporter light, run 1, well b: 1.72e5; control promoter light, run 1, well a: 3.23e5; control promoter light, run 1, well b: 3.79e5; uninduced reporter light, run 1, well a: 12405
Ggamma30A [DRSC02715] — induced reporter light, run 1, well a: 1.34e5; induced reporter light, run 1, well b: 1.67e5; control promoter light, run 1, well a: 60495; control promoter light, run 1, well b: 1.07e5; uninduced reporter light, run 1, well a: 18220
Ggamma30A [DRSC03331] — induced reporter light, run 1, well a: 1.15e5; induced reporter light, run 1, well b: 1.41e5; control promoter light, run 1, well a: 89660; control promoter light, run 1, well b: 95770; uninduced reporter light, run 1, well a: 18738
zetaTry [DRSC07720] — induced reporter light, run 1, well a: 1.26e5; induced reporter light, run 1, well b: 1.32e5; control promoter light, run 1, well a: 1.66e5; control promoter light, run 1, well b: 1.75e5; uninduced reporter light, run 1, well a: 12628
Ms [DRSC16041] — induced reporter light, run 1, well a: 1.40e5; induced reporter light, run 1, well b: 1.62e5; control promoter light, run 1, well a: 2.01e5; control promoter light, run 1, well b: 1.95e5; uninduced reporter light, run 1, well a: 13360

An excerpt from above, limited to “induced reporter light, run 1, well a”.
Toll-9 [DRSC11776]	67825
Cln7 [DRSC11005]	1.12e5
